Results as given in ChEMBL document CHEMBL5030542, “Pillar[5]arene-Based Polycationic Glyco[2]rotaxanes Designed as Pseudomonas aeruginosa Antibiofilm Agents” (J Med Chem, 2021).
Converted amounts (≈) assume the structure as drawn.

Test system: Pseudomonas aeruginosa
Experiment: Antibacterial activity against Pseudomonas aeruginosa PAO1 assessed as inhibition of bacterial growth for complete inhibition of bacterial growth incubated for 24 hrs
Assay type: functional

For `NC[C@H]1O[C@H](O[C@H]2[C@H](O)[C@@H](O[C@H]3O[C@H](CO)[C@@H](O)[C@H](N)[C@H]3O)[C@H](N)C[C@@H]2N)[C@H](N)C[C@@H]1O` [TOBRAMYCIN], the MIC was 2 µM (≈ 0.935 µg/mL).
